Protein sequences, listed by entry. Tags and fused reporters are not part of them.
UniProt P42945: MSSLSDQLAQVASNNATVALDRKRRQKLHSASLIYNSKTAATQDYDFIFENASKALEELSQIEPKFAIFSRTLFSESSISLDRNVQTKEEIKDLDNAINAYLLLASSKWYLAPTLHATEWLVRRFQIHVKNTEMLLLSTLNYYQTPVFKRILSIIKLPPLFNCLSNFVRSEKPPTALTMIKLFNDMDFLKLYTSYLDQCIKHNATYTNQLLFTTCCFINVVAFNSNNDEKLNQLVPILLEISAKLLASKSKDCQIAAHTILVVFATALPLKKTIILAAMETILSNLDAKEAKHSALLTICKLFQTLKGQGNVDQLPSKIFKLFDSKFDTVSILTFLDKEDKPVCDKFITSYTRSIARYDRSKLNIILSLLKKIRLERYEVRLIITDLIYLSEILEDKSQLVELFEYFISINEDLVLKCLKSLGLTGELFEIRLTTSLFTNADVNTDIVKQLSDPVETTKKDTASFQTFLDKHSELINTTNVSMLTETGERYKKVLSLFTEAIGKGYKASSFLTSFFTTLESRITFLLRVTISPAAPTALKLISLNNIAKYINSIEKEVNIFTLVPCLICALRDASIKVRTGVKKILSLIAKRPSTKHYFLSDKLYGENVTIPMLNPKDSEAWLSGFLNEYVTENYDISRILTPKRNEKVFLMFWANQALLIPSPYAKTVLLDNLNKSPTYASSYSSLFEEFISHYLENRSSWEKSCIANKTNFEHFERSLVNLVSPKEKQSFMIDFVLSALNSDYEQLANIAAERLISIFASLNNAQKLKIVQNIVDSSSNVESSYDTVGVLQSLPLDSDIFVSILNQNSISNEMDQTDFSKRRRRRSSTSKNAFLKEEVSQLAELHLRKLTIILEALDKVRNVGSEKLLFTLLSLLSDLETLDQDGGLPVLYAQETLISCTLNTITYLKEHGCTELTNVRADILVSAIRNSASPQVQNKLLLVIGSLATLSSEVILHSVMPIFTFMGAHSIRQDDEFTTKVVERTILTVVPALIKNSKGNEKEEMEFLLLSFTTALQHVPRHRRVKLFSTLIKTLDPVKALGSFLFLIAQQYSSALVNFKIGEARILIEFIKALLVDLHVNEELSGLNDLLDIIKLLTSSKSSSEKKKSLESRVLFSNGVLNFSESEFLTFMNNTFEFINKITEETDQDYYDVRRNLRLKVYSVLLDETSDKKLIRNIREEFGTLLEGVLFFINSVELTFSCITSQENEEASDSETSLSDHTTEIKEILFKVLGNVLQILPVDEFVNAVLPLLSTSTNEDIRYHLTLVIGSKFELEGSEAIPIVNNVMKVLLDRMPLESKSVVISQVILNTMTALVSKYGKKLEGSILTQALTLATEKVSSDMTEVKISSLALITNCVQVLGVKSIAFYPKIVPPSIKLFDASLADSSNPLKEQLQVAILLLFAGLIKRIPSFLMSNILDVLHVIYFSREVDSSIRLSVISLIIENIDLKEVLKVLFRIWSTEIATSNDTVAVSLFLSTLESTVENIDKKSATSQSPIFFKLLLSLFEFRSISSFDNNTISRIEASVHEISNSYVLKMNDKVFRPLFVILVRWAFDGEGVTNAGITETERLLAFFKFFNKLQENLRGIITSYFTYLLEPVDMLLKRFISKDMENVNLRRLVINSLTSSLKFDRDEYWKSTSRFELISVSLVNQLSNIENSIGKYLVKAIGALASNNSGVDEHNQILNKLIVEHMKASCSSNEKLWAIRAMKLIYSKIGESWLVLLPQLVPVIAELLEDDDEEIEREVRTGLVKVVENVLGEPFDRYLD
UniProt P28007: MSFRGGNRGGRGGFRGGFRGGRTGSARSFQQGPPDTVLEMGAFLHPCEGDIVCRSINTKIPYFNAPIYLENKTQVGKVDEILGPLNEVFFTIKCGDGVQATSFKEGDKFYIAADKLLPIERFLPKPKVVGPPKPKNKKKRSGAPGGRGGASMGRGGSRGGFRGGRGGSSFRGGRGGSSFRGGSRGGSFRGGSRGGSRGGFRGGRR
UniProt Q6Q547: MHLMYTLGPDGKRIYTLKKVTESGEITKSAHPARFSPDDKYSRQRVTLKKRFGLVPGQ
UniProt P33322: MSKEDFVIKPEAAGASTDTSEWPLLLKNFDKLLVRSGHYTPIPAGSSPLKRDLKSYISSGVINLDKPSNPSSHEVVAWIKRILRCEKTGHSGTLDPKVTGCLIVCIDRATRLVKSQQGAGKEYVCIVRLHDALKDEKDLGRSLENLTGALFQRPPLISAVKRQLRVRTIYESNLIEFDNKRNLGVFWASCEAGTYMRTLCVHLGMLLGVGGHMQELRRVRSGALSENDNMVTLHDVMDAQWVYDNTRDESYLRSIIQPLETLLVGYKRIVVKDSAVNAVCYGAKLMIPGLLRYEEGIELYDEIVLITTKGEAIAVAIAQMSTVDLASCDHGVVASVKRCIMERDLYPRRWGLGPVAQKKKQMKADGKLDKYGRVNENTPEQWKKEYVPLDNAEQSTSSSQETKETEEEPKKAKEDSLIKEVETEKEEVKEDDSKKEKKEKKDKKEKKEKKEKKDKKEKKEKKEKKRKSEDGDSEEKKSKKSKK
UniProt P32495: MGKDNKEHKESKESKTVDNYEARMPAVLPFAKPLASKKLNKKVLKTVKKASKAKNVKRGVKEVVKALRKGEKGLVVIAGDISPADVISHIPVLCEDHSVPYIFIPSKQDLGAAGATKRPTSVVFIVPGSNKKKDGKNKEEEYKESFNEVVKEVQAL

In PMC12095548:

T1: Noc4-FTpA (Saccharomyces cerevisiae (yeast)) (UniProt Q06512)
T1 sequence: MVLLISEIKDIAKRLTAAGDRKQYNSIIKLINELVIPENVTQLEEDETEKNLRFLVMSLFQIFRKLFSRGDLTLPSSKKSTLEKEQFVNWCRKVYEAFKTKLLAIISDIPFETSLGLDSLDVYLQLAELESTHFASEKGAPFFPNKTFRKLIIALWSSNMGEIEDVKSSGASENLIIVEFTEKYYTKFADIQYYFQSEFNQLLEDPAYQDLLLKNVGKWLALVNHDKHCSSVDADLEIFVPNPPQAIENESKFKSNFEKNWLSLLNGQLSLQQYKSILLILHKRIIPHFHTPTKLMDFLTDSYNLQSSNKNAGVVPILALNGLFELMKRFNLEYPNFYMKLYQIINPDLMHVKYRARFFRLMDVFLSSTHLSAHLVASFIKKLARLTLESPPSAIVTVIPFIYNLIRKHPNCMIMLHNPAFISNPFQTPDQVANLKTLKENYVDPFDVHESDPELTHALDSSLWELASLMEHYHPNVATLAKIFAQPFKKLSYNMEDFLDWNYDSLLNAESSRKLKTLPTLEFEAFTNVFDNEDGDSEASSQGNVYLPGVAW

T2: Kri1-FTpA (Saccharomyces cerevisiae (yeast)) (UniProt P42846)
T2 sequence: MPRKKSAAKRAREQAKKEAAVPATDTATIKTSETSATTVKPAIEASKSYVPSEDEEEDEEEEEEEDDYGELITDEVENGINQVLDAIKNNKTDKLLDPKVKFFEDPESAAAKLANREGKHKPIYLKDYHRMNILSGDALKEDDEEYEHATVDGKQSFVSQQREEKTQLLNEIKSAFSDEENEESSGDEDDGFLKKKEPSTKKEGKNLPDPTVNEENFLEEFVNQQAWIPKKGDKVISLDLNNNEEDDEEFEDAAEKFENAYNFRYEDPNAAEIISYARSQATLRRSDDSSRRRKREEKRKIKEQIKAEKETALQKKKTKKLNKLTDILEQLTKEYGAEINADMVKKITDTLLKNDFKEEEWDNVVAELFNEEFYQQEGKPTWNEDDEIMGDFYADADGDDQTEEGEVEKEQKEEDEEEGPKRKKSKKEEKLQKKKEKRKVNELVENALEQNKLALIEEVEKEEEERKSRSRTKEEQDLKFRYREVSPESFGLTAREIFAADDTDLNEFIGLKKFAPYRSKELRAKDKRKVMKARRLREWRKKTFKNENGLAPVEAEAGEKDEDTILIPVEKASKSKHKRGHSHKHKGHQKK

T3: Utp23-FTpA (Saccharomyces cerevisiae (yeast)) (UniProt Q12339)
T3 sequence: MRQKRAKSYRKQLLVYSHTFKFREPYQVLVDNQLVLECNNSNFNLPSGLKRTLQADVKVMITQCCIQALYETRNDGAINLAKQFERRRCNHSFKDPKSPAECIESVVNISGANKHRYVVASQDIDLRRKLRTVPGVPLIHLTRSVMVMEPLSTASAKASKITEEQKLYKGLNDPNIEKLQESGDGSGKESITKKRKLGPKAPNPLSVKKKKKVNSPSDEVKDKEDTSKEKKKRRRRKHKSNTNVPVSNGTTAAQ

B1: Utp22 (protein, UniProt P53254 1-1237)
chain: MATSVKRKASETSDQNIVKVQKKHSTQDSTTDNGSKENDHSSQAINERTVPEQENDESDTSPESNEVATNTAATRHNGKVTATESYDIHIARETAELFKSNIFKLQIDELLEQVKLKQKHVLKVEKFLHKLYDILQEIPDWEEKSLAEVDSFFKNKIVSVPFVDPKPIPQNTNYKFNYKKPDISLIGSFALKAGIYQPNGSSIDTLLTMPKELFEKKDFLNFRCLHKRSVYLAYLTHHLLILLKKDKLDSFLQLEYSYFDNDPLLPILRISCSKPTGDSLSDYNFYKTRFSINLLIGFPYKVFEPKKLLPNRNCIRIAQESKEQSLPATPLYNFSVLSSSTHENYLKYLYKTKKQTESFVEATVLGRLWLQQRGFSSNMSHSGSLGGFGTFEFTILMAALLNGGGINSNKILLHGFSSYQLFKGVIKYLATMDLCHDGHLQFHSNPENSSSSPASKYIDEGFQTPTLFDKSTKVNILTKMTVSSYQILKEYAGETLRMLNNVVQDQFSNIFLTNISRFDNLKYDLCYDVQLPLGKYNNLETSLAATFGSMERVKFITLENFLAHKITNVARYALGDRIKYIQIEMVGQKSDFPITKRKVYSNTGGNHFNFDFVRVKLIVNPSECDKLVTKGPAHSETMSTEAAVFKNFWGIKSSLRRFKDGSITHCCVWSTSSSEPIISSIVNFALQKHVSKKAQISNETIKKFHNFLPLPNLPSSAKTSVLNLSSFFNLKKSFDDLYKIIFQMKLPLSVKSILPVGSAFRYTSLCQPVPFAYSDPDFFQDVILEFETSPKWPDEITSLEKAKTAFLLKIQEELSANSSTYRSFFSRDESIPYNLEIVTLNILTPEGYGFKFRVLTERDEILYLRAIANARNELKPELEATFLKFTAKYLASVRHTRTLENISHSYQFYSPVVRLFKRWLDTHLLLGHITDELAELIAIKPFVDPAPYFIPGSLENGFLKVLKFISQWNWKDDPLILDLVKPEDDIRDTFETSIGAGSELDSKTMKKLSERLTLAQYKGIQMNFTNLRNSDPNGTHLQFFVASKNDPSGILYSSGIPLPIATRLTALAKVAVNLLQTHGLNQQTINLLFTPGLKDYDFVVDLRTPIGLKSSCGILSATEFKNITNDQAPSNFPENLNDLSEKMDPTYQLVKYLNLKYKNSLILSSRKYIGVNGGEKGDKNVITGLIKPLFKGAHKFRVNLDCNVKPVDDENVILNKEAIFHEIAAFGNDMVINFETD
B2: Rrp7 (protein, UniProt P25368 1-297)
chain: MGIEDISAMKNGFIVVPFKLPDHKALPKSQEASLHFMFAKRHQSSNSNESDCLFLVNLPLLSNIEHMKKFVGQLCGKYDTVSHVEELLYNDEFGLHEVDLSALTSDLMSSTDVNEKRYTPRNTALLKFVDAASINNCWNALKKYSNLHAKHPNELFEWTYTTPSFTTFVNFYKPLDIDYLKEDIHTHMAIFEQREAQAQEDVQSSIVDEDGFTLVVGKNTKSLNSIRKKILNKNPLSKHENKAKPISNIDKKAKKDFYRFQVRERKKQEINQLLSKFKEDQERIKVMKAKRKFNPYT
B3: Rok1 (enzyme, UniProt P45818 1-564)
chain: MDIFRVLTRGASVKKESGPKAKAADYSVINGNDENHKEDNNESQIVKELDFFRNKRIISKVEDDREKTTENDSPNKEEKSGNDDGLIKPVITNTVEASALRKSYKGNVSGIDIPLPIGSFEDLISRFSFDKRLLNNLIENGFTEPTPIQCECIPVALNNRDVLACGPTGSGKTLAFLIPLVQQIIDDKQTAGLKGLIISPTKELANQIFIECFKLSYKIFLEKKRPLQVALLSKSLGAKLKNKVVSDKKYDIIISTPLRLIDVVKNEALDLSKVKHLIFDEADKLFDKTFVEQSDDILSACREPSLRKAMFSATIPSNVEEIAQSIMMDPVRVIIGHKEAANTNIEQKLIFCGNEEGKLIAIRQLVQEGEFKPPIIIFLESITRAKALYHELMYDRINVDVIHAERTALQRDRIIERFKTGELWCLICTDVLARGIDFKGVNLVINYDVPGSSQAYVHRIGRTGRGGRSGKAITFYTKQDSVAIKPIINVMKQSGCEVSEWMDKMAKMTRKEKESIKNGKAHKERKQITTVPKMDKAKRRRQQEMIAASKRRKNEELSKKHFSK
B4: Utp23 (protein, UniProt Q12339 1-254)
chain: MRQKRAKSYRKQLLVYSHTFKFREPYQVLVDNQLVLECNNSNFNLPSGLKRTLQADVKVMITQCCIQALYETRNDGAINLAKQFERRRCNHSFKDPKSPAECIESVVNISGANKHRYVVASQDIDLRRKLRTVPGVPLIHLTRSVMVMEPLSTASAKASKITEEQKLYKGLNDPNIEKLQESGDGSGKESITKKRKLGPKAPNPLSVKKKKKVNSPSDEVKDKEDTSKEKKKRRRRKHKSNTNVPVSNGTTAAQ
B5: Kri1 (protein, UniProt P42846 1-591)
chain: MPRKKSAAKRAREQAKKEAAVPATDTATIKTSETSATTVKPAIEASKSYVPSEDEEEDEEEEEEEDDYGELITDEVENGINQVLDAIKNNKTDKLLDPKVKFFEDPESAAAKLANREGKHKPIYLKDYHRMNILSGDALKEDDEEYEHATVDGKQSFVSQQREEKTQLLNEIKSAFSDEENEESSGDEDDGFLKKKEPSTKKEGKNLPDPTVNEENFLEEFVNQQAWIPKKGDKVISLDLNNNEEDDEEFEDAAEKFENAYNFRYEDPNAAEIISYARSQATLRRSDDSSRRRKREEKRKIKEQIKAEKETALQKKKTKKLNKLTDILEQLTKEYGAEINADMVKKITDTLLKNDFKEEEWDNVVAELFNEEFYQQEGKPTWNEDDEIMGDFYADADGDDQTEEGEVEKEQKEEDEEEGPKRKKSKKEEKLQKKKEKRKVNELVENALEQNKLALIEEVEKEEEERKSRSRTKEEQDLKFRYREVSPESFGLTAREIFAADDTDLNEFIGLKKFAPYRSKELRAKDKRKVMKARRLREWRKKTFKNENGLAPVEAEAGEKDEDTILIPVEKASKSKHKRGHSHKHKGHQKK

Assays:
Assay in all cases: affinity purification with mass spectrometry; tandem affinity purification of an FTpA-tagged bait from yeast lysate (IgG Sepharose, TEV elution, FLAG agarose, FLAG peptide elution; 60 mM Tris-HCl pH 8.0, 50 mM NaCl, 40 mM KCl, 2 mM MgCl2); cells: wild type, krr1∆C1, or galactose-induced KRR1 or krr1∆C3; SDS-PAGE and semiquantitative MS
[1] = molecular target: T1, Noc4-FTpA (Saccharomyces cerevisiae (yeast))
[2] = molecular target: Utp10-FTpA (Saccharomyces cerevisiae (yeast)) (UniProt P42945)
[3] = molecular target: T1, Noc4-FTpA (Saccharomyces cerevisiae (yeast)); remark: listed apart in the source
[4] = molecular target: T2, Kri1-FTpA (Saccharomyces cerevisiae (yeast))
[5] = molecular target: T3, Utp23-FTpA (Saccharomyces cerevisiae (yeast))
[6] = molecular target: Utp10-FTpA (Saccharomyces cerevisiae (yeast)) (UniProt P42945); remark: listed apart in the source

Molecule	binding [1]	binding [2]	binding [3]	binding [4]	binding [5]	binding [6]
Gar1 (from UniProt P28007 1-205)	binds	binds	–	–	–	–
Nop10 (from UniProt Q6Q547 1-58)	binds	binds	–	–	–	–
Cbf5 (from UniProt P33322 1-483) (enzyme)	binds	binds	–	–	–	–
Nhp2 (from UniProt P32495 1-156)	binds	binds	–	–	–	–
B1	–	–	binds	binds weakly	binds weakly	binds
B2	–	–	binds	binds weakly	binds weakly	binds
B3	–	–	binds	binds weakly	binds weakly	binds
B4	–	–	binds	–	–	binds
B5	–	–	binds	–	–	binds

Read-outs that look alike come from different tables or passages of the source. No constants are given. Whether binding was seen depends on the method and setting. In cells and extracts the contact can be indirect. Here binding means that the protein was enriched with, or labelled near, the bait; the list need not be complete. For part of these data: Where a sequence is shown, tags or fusion partners need not be part of it.
